PubChem BioAssay AID1224830, NIAID, 2016
This is one part, drawn at random, of about 18,000 reagents tested. Of all reagents, about 2,900 (16%) got an active call. 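Calls are made per well; low scores hint the gene aids the LPS response, high scores that it dampens it.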 Repeated entries: four replicate wells of each siRNA pool.

Aim: 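Genes whose knock-down alters the TNF-alpha reporter response to LPS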 (primary screen)
System: human THP-1 monocytic leukaemia cells, TNF dual-luciferase reporter clone, PMA-differentiated to macrophage-like cells
Reagents: siRNA pool against human genes, 50 nM
Duration: LPS for 4 h, given about 3 days after siRNA transfection
Treatment: bacterial LPS (TLR4 ligand), 10 ng/ml
Read-out: 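Ratio of firefly to renilla light, scaled to the plate median and expressed as a robust z-score per replicate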
Direction: TNF reporter robust z-score: higher = stronger TNF reporter response to LPS
Hit rule: 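a well is active when its z-score exceeds 2.8 or falls below -1.5; control wells carry no call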

no.	Gene	PubChem SID	TNF reporter robust z-score	Call
1	VAPA	SID315453131	0.56	inactive
2	VAPA	SID315453131	-0.21	inactive
3	VAPA	SID315453131	-0.54	inactive
4	VAPA	SID315453131	-0.27	inactive
5	N4BP2	SID315457805	0.53	inactive
6	N4BP2	SID315457805	0.78	inactive
7	N4BP2	SID315457805	0.03	inactive
8	N4BP2	SID315457805	1.95	inactive
9	CANT1	SID315461620	0.49	inactive
10	CANT1	SID315461620	0.61	inactive
11	CANT1	SID315461620	0.02	inactive
12	CANT1	SID315461620	-0.42	inactive
13	POPDC2	SID315458817	1.86	inactive
14	POPDC2	SID315458817	0.51	inactive
15	POPDC2	SID315458817	0.04	inactive
16	POPDC2	SID315458817	-0.22	inactive
17	ZNF30	SID315460780		inactive
18	ZNF30	SID315460780	0.23	inactive
19	ZNF30	SID315460780	0.81	inactive
20	ZNF30	SID315460780	0.44	inactive
21	IFI30	SID315454087	-0.2	inactive
22	IFI30	SID315454087	-0.8	inactive
23	IFI30	SID315454087	-0.56	inactive
24	IFI30	SID315454087	-0.91	inactive
25	DOT1L	SID315460362	1.91	inactive
26	DOT1L	SID315460362	-0.19	inactive
27	DOT1L	SID315460362	0.71	inactive
28	DOT1L	SID315460362	3.03	active
29	EIF5A2	SID315458094	0.81	inactive
30	EIF5A2	SID315458094	1.65	inactive
31	EIF5A2	SID315458094	-0.39	inactive
32	EIF5A2	SID315458094	-0.82	inactive
33	SCCPDH	SID315456466	0.56	inactive
34	SCCPDH	SID315456466	4.28	active
35	SCCPDH	SID315456466	2	inactive
36	SCCPDH	SID315456466	2.89	active
37	COPS7A	SID315456358	-2.1	active
38	COPS7A	SID315456358	-1.55	active
39	COPS7A	SID315456358	-1.93	active
40	COPS7A	SID315456358	-1.68	active
41	CTSL	SID315448181	0.06	inactive
42	CTSL	SID315448181	1.89	inactive
43	CTSL	SID315448181	-1.16	inactive
44	CTSL	SID315448181	1.1	inactive
45	CLDN20	SID315456316	-0.39	inactive
46	CLDN20	SID315456316	0.2	inactive
47	CLDN20	SID315456316	-0.36	inactive
48	CLDN20	SID315456316	-0.68	inactive
49	ENTHD1	SID315462448	-0.49	inactive
50	ENTHD1	SID315462448	-0.68	inactive
51	ENTHD1	SID315462448	0.66	inactive
52	ENTHD1	SID315462448	0.02	inactive
53	VGF	SID315452113	-0.6	inactive
54	VGF	SID315452113	-0.48	inactive
55	VGF	SID315452113	-0.86	inactive
56	VGF	SID315452113	-0.62	inactive
57	KLRA1P	SID315454334	1.2	inactive
58	KLRA1P	SID315454334	0.85	inactive
59	KLRA1P	SID315454334	0.51	inactive
60	KLRA1P	SID315454334	1.1	inactive
61	MAL	SID315449869	2.82	active
62	MAL	SID315449869	1.51	inactive
63	MAL	SID315449869	0.9	inactive
64	MAL	SID315449869	-0.92	inactive
65	PLAC1	SID315454341	0.52	inactive
66	PLAC1	SID315454341	-0.33	inactive
67	PLAC1	SID315454341	0.33	inactive
68	PLAC1	SID315454341	-0.32	inactive
69	MAB21L4	SID315459562	-0.44	inactive
70	MAB21L4	SID315459562	-0.17	inactive
71	MAB21L4	SID315459562	0.03	inactive
72	MAB21L4	SID315459562	-0.38	inactive
73	MEPCE	SID315458057	-1.94	active
74	MEPCE	SID315458057	-1.89	active
75	MEPCE	SID315458057	-1.52	active
76	MEPCE	SID315458057	-1.01	inactive

Records above marked active (11):
Gene	PubChem SID	TNF reporter robust z-score	Call
DOT1L	SID315460362	3.03	active
SCCPDH	SID315456466	4.28	active
SCCPDH	SID315456466	2.89	active
COPS7A	SID315456358	-2.1	active
COPS7A	SID315456358	-1.55	active
COPS7A	SID315456358	-1.93	active
COPS7A	SID315456358	-1.68	active
MAL	SID315449869	2.82	active
MEPCE	SID315458057	-1.94	active
MEPCE	SID315458057	-1.89	active
MEPCE	SID315458057	-1.52	active
